Measurements from the supplement of paper PMC10849652.
Some of the results follow.

Amino acid sequences for entries named in this document (tags omitted). A change or cut given only in a name is not applied to a line headed by its entry.
UniProt O60725, whole entry, looked up: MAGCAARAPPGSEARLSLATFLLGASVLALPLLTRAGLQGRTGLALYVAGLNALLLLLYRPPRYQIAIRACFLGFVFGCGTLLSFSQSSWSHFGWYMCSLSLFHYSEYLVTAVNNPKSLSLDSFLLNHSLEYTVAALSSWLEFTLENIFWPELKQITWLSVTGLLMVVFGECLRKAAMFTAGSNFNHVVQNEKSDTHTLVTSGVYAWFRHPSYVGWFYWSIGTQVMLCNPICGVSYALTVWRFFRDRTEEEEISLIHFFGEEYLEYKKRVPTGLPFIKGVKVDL
UniProt Q53T59: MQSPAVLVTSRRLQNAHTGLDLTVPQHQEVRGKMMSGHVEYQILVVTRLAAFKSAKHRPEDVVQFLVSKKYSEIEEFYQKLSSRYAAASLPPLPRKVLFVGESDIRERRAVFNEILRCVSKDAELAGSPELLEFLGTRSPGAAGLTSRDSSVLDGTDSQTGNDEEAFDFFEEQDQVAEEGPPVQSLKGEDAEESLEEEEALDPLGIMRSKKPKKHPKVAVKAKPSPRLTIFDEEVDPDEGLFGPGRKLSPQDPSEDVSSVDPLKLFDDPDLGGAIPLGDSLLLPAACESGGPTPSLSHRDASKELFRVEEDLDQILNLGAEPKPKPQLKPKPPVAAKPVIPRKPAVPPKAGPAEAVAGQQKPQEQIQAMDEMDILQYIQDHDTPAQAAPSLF
UniProt Q58FF6, whole entry, looked up: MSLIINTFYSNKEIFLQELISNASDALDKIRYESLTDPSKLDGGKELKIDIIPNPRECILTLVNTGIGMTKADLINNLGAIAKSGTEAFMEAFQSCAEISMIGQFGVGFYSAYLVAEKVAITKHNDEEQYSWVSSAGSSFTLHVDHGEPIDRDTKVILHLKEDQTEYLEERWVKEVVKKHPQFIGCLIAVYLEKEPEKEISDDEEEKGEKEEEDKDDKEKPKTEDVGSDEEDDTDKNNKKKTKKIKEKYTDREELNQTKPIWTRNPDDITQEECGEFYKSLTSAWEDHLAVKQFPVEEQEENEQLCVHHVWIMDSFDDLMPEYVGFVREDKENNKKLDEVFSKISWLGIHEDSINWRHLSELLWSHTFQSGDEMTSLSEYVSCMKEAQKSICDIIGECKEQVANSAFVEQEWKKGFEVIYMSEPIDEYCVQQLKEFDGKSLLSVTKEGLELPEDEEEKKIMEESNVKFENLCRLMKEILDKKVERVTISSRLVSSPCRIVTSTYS
UniProt O43390: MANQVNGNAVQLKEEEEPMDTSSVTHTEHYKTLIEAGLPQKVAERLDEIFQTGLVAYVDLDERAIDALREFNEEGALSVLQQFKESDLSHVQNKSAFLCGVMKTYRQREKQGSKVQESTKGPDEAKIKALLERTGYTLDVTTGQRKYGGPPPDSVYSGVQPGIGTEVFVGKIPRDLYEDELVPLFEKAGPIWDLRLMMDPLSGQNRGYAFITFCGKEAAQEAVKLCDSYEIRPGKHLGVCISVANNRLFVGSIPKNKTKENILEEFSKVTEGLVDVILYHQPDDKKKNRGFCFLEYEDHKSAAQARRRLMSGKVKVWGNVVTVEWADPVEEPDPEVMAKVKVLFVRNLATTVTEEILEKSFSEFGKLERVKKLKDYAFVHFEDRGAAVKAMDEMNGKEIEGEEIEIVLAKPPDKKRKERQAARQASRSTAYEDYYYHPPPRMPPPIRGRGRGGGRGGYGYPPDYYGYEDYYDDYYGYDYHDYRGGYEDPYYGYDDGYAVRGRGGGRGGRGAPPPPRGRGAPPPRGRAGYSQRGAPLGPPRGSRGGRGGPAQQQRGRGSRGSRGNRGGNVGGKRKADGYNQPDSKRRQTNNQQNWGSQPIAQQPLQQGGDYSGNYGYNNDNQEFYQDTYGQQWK
UniProt Q9NSB8: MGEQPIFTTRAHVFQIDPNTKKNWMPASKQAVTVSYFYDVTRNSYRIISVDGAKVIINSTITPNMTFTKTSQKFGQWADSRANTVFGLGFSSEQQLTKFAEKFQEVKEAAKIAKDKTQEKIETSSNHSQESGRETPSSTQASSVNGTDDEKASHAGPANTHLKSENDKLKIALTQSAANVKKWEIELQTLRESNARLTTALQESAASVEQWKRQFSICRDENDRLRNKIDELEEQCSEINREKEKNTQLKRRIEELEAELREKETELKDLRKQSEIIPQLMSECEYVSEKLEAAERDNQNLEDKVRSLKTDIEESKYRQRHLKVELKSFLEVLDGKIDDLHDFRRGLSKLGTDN
UniProt Q9Y2F5: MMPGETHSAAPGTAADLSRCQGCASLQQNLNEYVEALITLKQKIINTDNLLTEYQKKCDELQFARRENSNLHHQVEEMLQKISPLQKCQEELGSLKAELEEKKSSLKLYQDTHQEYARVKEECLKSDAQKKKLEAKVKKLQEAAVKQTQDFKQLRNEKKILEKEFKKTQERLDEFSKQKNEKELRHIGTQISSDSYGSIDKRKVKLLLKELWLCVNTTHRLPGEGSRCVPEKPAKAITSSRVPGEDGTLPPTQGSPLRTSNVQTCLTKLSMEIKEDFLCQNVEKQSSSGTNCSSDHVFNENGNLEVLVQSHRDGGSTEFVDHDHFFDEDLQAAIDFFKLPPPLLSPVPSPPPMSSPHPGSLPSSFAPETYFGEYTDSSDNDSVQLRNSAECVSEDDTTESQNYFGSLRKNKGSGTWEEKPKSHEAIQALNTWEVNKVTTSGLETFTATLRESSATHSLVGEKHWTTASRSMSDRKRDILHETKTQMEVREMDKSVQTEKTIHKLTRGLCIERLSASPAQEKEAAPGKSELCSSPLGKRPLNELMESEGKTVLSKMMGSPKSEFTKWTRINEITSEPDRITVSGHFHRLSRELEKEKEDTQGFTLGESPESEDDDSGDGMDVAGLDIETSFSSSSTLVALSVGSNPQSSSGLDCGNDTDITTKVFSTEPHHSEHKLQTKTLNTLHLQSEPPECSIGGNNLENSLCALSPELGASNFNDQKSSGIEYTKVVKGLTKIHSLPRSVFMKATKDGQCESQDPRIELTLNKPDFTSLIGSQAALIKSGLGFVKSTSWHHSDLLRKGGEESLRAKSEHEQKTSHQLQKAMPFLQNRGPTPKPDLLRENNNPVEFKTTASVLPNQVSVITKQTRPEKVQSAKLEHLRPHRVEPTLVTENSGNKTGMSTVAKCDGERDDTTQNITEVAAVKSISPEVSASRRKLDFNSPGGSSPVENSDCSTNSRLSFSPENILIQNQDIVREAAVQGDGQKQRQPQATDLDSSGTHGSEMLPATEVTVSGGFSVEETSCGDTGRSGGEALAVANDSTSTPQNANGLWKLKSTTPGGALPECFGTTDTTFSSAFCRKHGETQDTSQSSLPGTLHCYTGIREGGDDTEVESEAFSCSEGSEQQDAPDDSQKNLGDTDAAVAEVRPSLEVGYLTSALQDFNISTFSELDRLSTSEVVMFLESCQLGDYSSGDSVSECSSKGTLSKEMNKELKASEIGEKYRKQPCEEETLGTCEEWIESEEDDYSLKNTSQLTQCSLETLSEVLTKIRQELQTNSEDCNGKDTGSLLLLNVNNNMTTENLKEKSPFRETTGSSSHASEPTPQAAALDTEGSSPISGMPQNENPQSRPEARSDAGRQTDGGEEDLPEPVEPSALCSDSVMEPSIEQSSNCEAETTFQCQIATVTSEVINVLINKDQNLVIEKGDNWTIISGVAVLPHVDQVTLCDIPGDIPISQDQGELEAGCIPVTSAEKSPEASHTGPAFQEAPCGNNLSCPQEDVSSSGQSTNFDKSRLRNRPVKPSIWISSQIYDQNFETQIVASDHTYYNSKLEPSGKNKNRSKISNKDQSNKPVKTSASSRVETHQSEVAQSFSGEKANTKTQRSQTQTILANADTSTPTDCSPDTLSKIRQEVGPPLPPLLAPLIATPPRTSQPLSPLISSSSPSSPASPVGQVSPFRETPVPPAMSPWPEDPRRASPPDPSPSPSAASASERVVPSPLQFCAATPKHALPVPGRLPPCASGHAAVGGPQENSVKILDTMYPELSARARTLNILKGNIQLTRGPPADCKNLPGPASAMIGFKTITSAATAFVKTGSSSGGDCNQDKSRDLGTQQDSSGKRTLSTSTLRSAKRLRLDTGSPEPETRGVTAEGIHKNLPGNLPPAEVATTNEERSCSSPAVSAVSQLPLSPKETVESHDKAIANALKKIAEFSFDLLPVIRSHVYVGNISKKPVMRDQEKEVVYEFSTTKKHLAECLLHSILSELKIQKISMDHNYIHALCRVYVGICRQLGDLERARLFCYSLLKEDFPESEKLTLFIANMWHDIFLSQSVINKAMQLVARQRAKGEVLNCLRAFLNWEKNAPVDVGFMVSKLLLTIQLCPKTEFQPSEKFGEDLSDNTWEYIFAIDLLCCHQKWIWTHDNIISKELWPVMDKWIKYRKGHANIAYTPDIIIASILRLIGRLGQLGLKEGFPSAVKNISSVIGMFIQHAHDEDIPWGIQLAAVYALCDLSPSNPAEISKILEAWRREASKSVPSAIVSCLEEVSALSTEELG
UniProt Q92902: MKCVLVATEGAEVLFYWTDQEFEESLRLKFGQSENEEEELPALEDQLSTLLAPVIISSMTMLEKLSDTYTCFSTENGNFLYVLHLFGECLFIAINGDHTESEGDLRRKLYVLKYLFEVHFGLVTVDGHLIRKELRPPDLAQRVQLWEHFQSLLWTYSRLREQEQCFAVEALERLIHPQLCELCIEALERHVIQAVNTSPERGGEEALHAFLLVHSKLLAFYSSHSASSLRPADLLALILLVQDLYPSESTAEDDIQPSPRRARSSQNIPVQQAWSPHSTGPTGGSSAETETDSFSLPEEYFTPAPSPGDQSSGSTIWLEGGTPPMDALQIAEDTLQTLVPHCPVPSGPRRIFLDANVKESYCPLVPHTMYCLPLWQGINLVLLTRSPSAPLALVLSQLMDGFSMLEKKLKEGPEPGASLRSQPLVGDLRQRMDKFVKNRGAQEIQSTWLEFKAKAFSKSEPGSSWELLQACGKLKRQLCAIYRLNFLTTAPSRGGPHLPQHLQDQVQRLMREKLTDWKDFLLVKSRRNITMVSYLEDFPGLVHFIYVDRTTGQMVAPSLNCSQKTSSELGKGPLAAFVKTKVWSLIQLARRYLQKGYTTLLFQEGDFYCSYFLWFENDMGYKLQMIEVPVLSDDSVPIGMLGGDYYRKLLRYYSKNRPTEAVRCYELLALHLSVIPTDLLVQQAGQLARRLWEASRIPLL
UniProt P41134: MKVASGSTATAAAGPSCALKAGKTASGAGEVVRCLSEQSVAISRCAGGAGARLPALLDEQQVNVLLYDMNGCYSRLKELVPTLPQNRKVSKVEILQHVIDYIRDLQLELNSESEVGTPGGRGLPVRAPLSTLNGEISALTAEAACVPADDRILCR
UniProt P30939: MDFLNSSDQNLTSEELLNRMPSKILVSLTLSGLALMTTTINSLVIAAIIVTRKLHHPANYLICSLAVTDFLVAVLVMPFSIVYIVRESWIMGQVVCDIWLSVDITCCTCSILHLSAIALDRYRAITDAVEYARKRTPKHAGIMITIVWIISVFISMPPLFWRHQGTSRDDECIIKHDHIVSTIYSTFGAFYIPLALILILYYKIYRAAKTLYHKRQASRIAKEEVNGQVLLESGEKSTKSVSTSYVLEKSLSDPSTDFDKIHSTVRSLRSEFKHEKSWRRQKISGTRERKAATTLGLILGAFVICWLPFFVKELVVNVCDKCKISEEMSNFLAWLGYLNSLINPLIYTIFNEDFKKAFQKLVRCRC

Tests used:
Test in all cases: log2 fold change, soluble protein after heating vs DMSO (PISA); higher = thermal stabilisation; K562 cells, 10 uM, 30 min; active = over 0.2 and 3.5 SD of the protein, either way, in both replicates (recomputed)
bafetinib = compound: Cc1ccc(NC(=O)c2ccc(CN3CC[C@H](N(C)C)C3)c(C(F)(F)F)c2)cc1Nc1nccc(-c2cncnc2)n1 [bafetinib]
Outline: (§1)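 Values are thermal stability changes relative to control samples and are taken from duplicates. They are stated as log2 fold changes. Before quantification by TMTpro 16plex LC-MS/MS with equalised channel sums, K562 cells at 2×10^6 cells/mL were treated with 10 μM compound for 30 min, heated in aliquots for 3 min across 48°C-58°C, pooled, extracted in PBS with 0.5% NP-40 at 4°C, and centrifuged at 21,000xg for 90 min to give the soluble supernatant.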

nilotinib = compound: Cc1cn(-c2cc(NC(=O)c3ccc(C)c(Nc4nccc(-c5cccnc5)n4)c3)cc(C(F)(F)F)c2)cn1 [nilotinib]
Outline: as §1

[1] = compound: Cc1nc(Nc2n[nH]c3c2CN(C(=O)N[C@H](CN(C)C)c2ccccc2)C3(C)C)c2sccc2n1
Outline: as §1

dasatinib = compound: Cc1nc(Nc2ncc(C(=O)Nc3c(C)cccc3Cl)s2)cc(N2CCN(CCO)CC2)n1 [dasatinib]
Outline: as §1

[2] = compound: Cc1ncc(-c2ccnc(Nc3ccc(S(C)(=O)=O)cc3)n2)n1C(C)C
Outline: as §1

[3] = compound: Cn1cc(-c2ccc3nnc(C(F)(F)c4ccc5ncccc5c4)n3n2)cn1
Outline: as §1

tipifarnib = compound: Cn1cncc1[C@@](N)(c1ccc(Cl)cc1)c1ccc2c(c1)c(-c1cccc(Cl)c1)cc(=O)n2C [tipifarnib]
Outline: as §1

mubritinib = compound: FC(F)(F)c1ccc(/C=C/c2nc(COc3ccc(CCCCn4ccnn4)cc3)co2)cc1 [mubritinib]
Outline: as §1

[4] = compound: Cn1cc(-c2ccc3c(c2)CCN3C(=O)Cc2cccc(C(F)(F)F)c2)c2c(N)ncnc21
Outline: as §1

[5] = compound: Cc1cccc(CC(=O)N2CCc3c2ccc(-c2cn(C)c4ncnc(N)c24)c3F)n1
Outline: as §1

Measured: log2 fold change

ICMT (UniProt O60725)
inactive: bafetinib -0.103 | nilotinib 0.049 | [1] 0.17 | dasatinib 0.065 | [2] -0.003 | [3] 0.113 | tipifarnib 0.107 | mubritinib 0.284

HS1BP3 (UniProt Q53T59)
inactive: bafetinib -0.022 | nilotinib -0.023 | [1] -0.104 | dasatinib -0.047 | [2] -0.029 | [4] 0.062 | [3] -0.067 | tipifarnib -0.038

HSP90AB4P (UniProt Q58FF6)
inactive: bafetinib 0.09 | nilotinib -0.262 | [1] -0.052 | dasatinib -0.077 | [2] -0.168 | [4] -0.018 | mubritinib 0.023

HNRNPR (UniProt O43390)
inactive: bafetinib -0.024 | nilotinib 0.066 | [1] -0.02 | [2] 0.015 | [4] -0.323 | tipifarnib 0.302 | mubritinib -0.109

Fetched one by one from the entries so far (2):
HNRNPR (UniProt O43390)
inactive: bafetinib -0.024 | nilotinib 0.066 | [1] -0.02 | [2] 0.015 | [4] -0.323 | tipifarnib 0.302 | mubritinib -0.109

ICMT (UniProt O60725)
inactive: bafetinib -0.103 | nilotinib 0.049 | [1] 0.17 | dasatinib 0.065 | [2] -0.003 | [3] 0.113 | tipifarnib 0.107 | mubritinib 0.284

Next part

HOMER2 (UniProt Q9NSB8)
inactive: [4] 0.037 | mubritinib 0.003

ICE1 (UniProt Q9Y2F5)
inactive: bafetinib -0.119 | nilotinib -0.107 | [1] 0.067 | [2] 0.012 | mubritinib 0.093

HPS1 (UniProt Q92902)
inactive: bafetinib -0.016 | nilotinib -0.002 | [1] -0.03 | [2] 0.026 | [4] 0.058 | [3] -0.312 | tipifarnib 0.057 | mubritinib 0.042

ID1 (UniProt P41134)
inactive: bafetinib -0.002 | nilotinib 0.022 | [1] -0.127 | dasatinib -0.295 | [2] 0.045 | [3] 0.169 | mubritinib 0.268

HTR1F (UniProt P30939)
inactive: [5] -0.16 | [4] 0.125

HMBS (UniProt F5H0P4)
inactive: mubritinib -0.35
